## Assay results

Source: PubChem BioAssay AID1159506 (NCATS, 2015).

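Luminescence from an EWS-FLI1 target-promoter (NR0B1) reporter, set against a CMV-promoter reporter, two days after silencing single genes in TC32 Ewing sarcoma cells.
Each siRNA was applied at 20 nM.
A z-score of the log NR0B1-over-CMV signal, less the median of siRNAs with the same seed; more negative means a stronger specific loss of the NR0B1 reporter.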

This is part of the screen; most of the strongest results are not listed here.
Sequences are the guide (antisense) strand, without overhang.

siRNA	gene	seed-corrected z-score
UACAGUUGCAGUAGUAGCC	ITGB3	-0.3843
UCCGUGAGGUGGUAUCUGU	SCGB1B2P	0.4965
UCUAAACCCAUCGUGAUUC	UNC79	-0.283
AAAAGGUCGGCUUUGAAGU	MLLT4-AS1	2.632
UGAUCUUUCACGUAAUACG	PLET1	-0.9137
UUUUCUACAGUAAGUUUUG	DENR	0.1431
UGAGGUUAGAGUCAUCAGG	DENND4B	-0.6475
UCUUUCACUGUUAAAUUCC	NFYC	0.4592
UUCCGGUUUAUUUGGGUCC	CACNA1S	-0.08301
UAAAUAUUAGGGAGCCGGC	RETN	0.0507
UUAGUUGGUCCCAACGAGC	DYNC2H1	-0.9178
AAUGGUCUUGCUAAUCUCC	HOXC10	-0.1493
UACAUCAUUAUUCCUCAGG	OR8J3	0.2525
UGGUCUAUCAAAUAGCAGC	HNRNPM	-0.6534
UAUGUAAACACUAGGGAAG	TRIM16L	-0.08393
UUUGUAGUAGGACGCGUGG	PSMD13	-0.02548
UUUUCAUCAGGUUCAAAAU	LTB	-0.7565
UGUUCUUCAAGAUAUGCCU	SARNP	-0.3538
UGUAAGUACAGAGCUGUUG	ZHX1	0.7547
UGAUGAUAUCAUGAUAUCC	ADAMTS1	-0.06078
AAAACUGCAAUUCAUUUAG	OR5V1	-1.628
UUUCGAAUGACUUGAAUAG	VANGL1	-0.1459
UAUCUCAUCUAGCAGGUUC	PPL	-0.2838
UGACAGUCCAACAUCCAUG	ISM2	-0.02657
UCGUGGAACAAGAUCAAUC	TRIP12	-0.6936
UAGUUUUCGCUCAUCACCU	KLHDC7A	-0.2784
UCAGGAGGUAGUUCUUUCC	TREH	-1.882
UUUGCACCACCCUUCAGAG	OR4X2	0.8252
UCAUCGCAUACGACUUUGC	PABPC5	-0.265
UUUGUCGACAGUUCCCAAC	EIF3F	0.1043
UUGAGUACGAUGAAGGUCU	SCN4A	-0.6377
UAUGUGAGCCCUGAUAACC	CRHR1-IT1	0.2601
UAAAGCCGAAGUGGAAUGC	FAM208A	-0.06286
UCACGUGAUAGACUCCAGG	TMEM134	2.197
AACCUGUACGGAAACUUCU	C3orf22	0.6319
UGAUUUCCGACGAGUAAGG	HELZ2	-0.04405
UAGUAGUCAACGGUGCACC	CEP162	-0.495
AUCAUGCUUAUCUUGAUCC	LOC727874	0.4388
UCAGGUAAUAGUCAUUUCG	CDC20	-0.1406
UUUCGUACUUGAGCGAGUC	TTLL7	0.1847
UCUCGUAAGACAUUGGGAG	SELENBP1	0.1778
AGAGGUCUAAUGAAAAUCU	PTGDR	-1.294
UGGUGUAGUAGAGCAGUGC	KIAA0895L	-1.596
AGCAGAUAAAGUGAUAUCC	DEPDC1B	-0.0331
AACUGUUCUAUUUCCGCCC	PPP1R26	-0.412
UUAUGUUUUAUUUCCGGCA	CA5A	-0.7595
UCGAGUUUCAUUGGUAAGC	USP46	0.6303
UGCAUGUAAGUUUCUUGCC	DEFB124	0.05327
UCUUCCGUAAUCUUCAGGG	LINC01599	0.02705
UAAAGUAUGACCGUCACCC	LOC644090	0.1781
AAAGGACUUAUUUAGAGCC	LOC642335	-0.7398
UAAGAGAUCAAGACAGUAG	OR5K4	-0.02713
UUACUCUAAUUUUAUCUGC	SRPK2	-0.3103
AUAAUUAGAAGUACUGAGG	OR51A7	0.1697
UUAAUCUUAAGCGUGUGCG	IGSF22	0.3675
AUAUUUCUCCAGGUUGUUC	ENDOG	0.6172
UGGAGUGCUGUUACGAAGC	CCDC188	-0.7314
AAAGGAAUAAUCCACAUUU	KIRREL	0.5491
UCAUCAUCCACUUGCAGAC	PSMD9	-0.6691
UCAGCUCGUACUCAUAGGG	CACNA1B	0.04938
UAUCUGGUUGAUGCAGUCG	EXTL1	-0.7682
UACAGUCCCAGUAACCCUC	YAF2	0.2881
UCAGGGUACAGAGCAAAGC	CTSK	-0.2348
AAGGUGUACAUAGCUGCGG	KIAA1161	-1.908
UCCGCAGAAACUCCUCAGC	PARP10	-0.9827
UCAGGGUGUAAAUAAGUGG	OR2C3	1.127
UAAUGGUUGAAUAGAAUGA	LINC00938	-0.3114
UGAAGACAUCUGGAUAGUG	DRGX	0.4569
UCUCUCUCCAUAUCUUUCC	C3orf62	0.1935
UAGGUCGCGAUCUCGAUGC	GSX1	0.5192
UCUCCUACACGUUGUCUUC	ARHGAP11B	0.9772
UGUCGUUGCAGGUUGUCUC	GDI1	-0.5878
UAGGUUGCAAUAUAUUGCG	PHACTR4	-1.228

Some entries from above, unchanged:

| siRNA | gene | seed-corrected z-score |
|---|---|---|
| `AGAGGUCUAAUGAAAAUCU` | PTGDR | -1.294 |
| `UGUUCUUCAAGAUAUGCCU` | SARNP | -0.3538 |
| `UCAGGGUGUAAAUAAGUGG` | OR2C3 | 1.127 |
| `UGAUCUUUCACGUAAUACG` | PLET1 | -0.9137 |
| `UUGAGUACGAUGAAGGUCU` | SCN4A | -0.6377 |
| `UCUCUCUCCAUAUCUUUCC` | C3orf62 | 0.1935 |
| `UCGAGUUUCAUUGGUAAGC` | USP46 | 0.6303 |
| `AACUGUUCUAUUUCCGCCC` | PPP1R26 | -0.412 |
| `UACAUCAUUAUUCCUCAGG` | OR8J3 | 0.2525 |